Data taken from article PMC8414670.
No constants are given. Whether binding was seen depends on the method and setting. Some binding calls cover weakened binding; strength is not graded here.

T1: RibH (dimethylribityl-lumazine synthase, native) (Bacillus subtilis (endogenous in PY79)) (UniProt P11998)
T1 sequence: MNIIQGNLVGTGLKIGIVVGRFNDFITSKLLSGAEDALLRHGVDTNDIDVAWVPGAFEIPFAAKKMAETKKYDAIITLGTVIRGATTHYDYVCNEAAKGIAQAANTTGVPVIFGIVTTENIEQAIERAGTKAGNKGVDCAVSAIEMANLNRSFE


Tests used:
[1] = biological target: RibH-mV (DMRL synthase RibH with C-terminal mVenus) (Bacillus subtilis) (UniProt P11998); test: single particle tracking (jump distance analysis of diffusive populations); live B. subtilis PY79 cells in exponential growth (S7_50 minimal medium, grown at 30 °C); mVenus fusion expressed from the original gene locus; populations compared with ribH or ribE deletion strains and with calculated diffusion coefficients; 13.76 ms interval
[2] = biological target: T1, RibH (dimethylribityl-lumazine synthase, native) (Bacillus subtilis (endogenous in PY79)); test: condition: only ribE-mV expressed from amyE and ribE deleted from the original locus; single particle tracking (jump distance analysis of diffusive populations); live B. subtilis PY79 cells; ribE-mV expressed from the ectopic amyE locus, ribE deleted from the original locus, RibH present

| binding [1] | binding [2] | Binder |
| --- | --- | --- |
| binds | – | RibH-mV (DMRL synthase RibH with C-terminal mVenus) (enzyme, UniProt P11998 1-154) MNIIQGNLVGTGLKIGIVVGRFNDFITSKLLSGAEDALLRHGVDTNDIDVAWVPGAFEIPFAAKKMAETKKYDAIITLGTVIRGATTHYDYVCNEAAKGIAQAANTTGVPVIFGIVTTENIEQAIERAGTKAGNKGVDCAVSAIEMANLNRSFE |
| – | no binding | RibE-mV (riboflavin synthase RibE with C-terminal mVenus) (enzyme, UniProt P16440 1-215) MFTGIIEETGTIESMKKAGHAMALTIKCSKILEDVHLGDSIAVNGICLTVTDFTKNQFTVDVMPETVKATSLNDLTKGSKVNLERAMAANGRFGGHFVSGHVDGTAEITRIEEKSNAVYYDLKMDPSLTKTLVLKGSITVDGVSLTIFGLTEDTVTISLIPHTISETIFSEKTIGSKVNIECDMIGKYMYRFLHKANENKTQQTITKAFLSENGF |
